We go through 1 molecule from paper PMC4191414.

These are yes or no findings as the source states them, for the method shown. In cells and extracts the contact can be indirect. Some entries that bind do so weakly or less than the wild type.

The assay concerns the target T1, checkpoint kinase 1 (human (endogenous in HEK 293T)) (UniProt O14757).
T1 sequence: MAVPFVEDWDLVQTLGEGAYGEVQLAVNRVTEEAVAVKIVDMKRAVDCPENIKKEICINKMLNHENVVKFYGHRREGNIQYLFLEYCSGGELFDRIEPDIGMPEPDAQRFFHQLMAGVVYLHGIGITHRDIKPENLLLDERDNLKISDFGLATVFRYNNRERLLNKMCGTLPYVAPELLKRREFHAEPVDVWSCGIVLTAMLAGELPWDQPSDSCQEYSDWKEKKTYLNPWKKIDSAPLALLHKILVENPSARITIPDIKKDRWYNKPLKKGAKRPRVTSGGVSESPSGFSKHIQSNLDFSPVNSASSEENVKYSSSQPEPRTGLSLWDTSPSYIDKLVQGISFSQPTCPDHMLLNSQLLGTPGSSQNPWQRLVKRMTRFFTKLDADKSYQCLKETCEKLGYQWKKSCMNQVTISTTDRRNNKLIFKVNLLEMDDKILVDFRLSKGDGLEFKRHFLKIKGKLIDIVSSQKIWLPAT
As to the kind of experiment: co-IP; endogenous proteins from 293T cell lysate (3 mg, pre-cleared); immunoprecipitated with antibodies against CHK1 or NEK9 or mouse IgG on protein G beads, 4 h at 4°C; 0.375% CHAPS lysis buffer (10% glycerol, 150 mM NaCl, 50 mM Tris pH 7.5, 0.5 mM DTT), five washes; immunoblot. A general note: A western blot detects proteins with antibodies after separation by electrophoresis.

B1: NIMA (never in mitosis gene A)-related kinase 9 (protein, UniProt Q8TD19 1-979)
chain: MSVLGEYERHCDSINSDFGSESGGCGDSSPGPSASQGPRAGGGAAEQEELHYIPIRVLGRGAFGEATLYRRTEDDSLVVWKEVDLTRLSEKERRDALNEIVILALLQHDNIIAYYNHFMDNTTLLIELEYCNGGNLYDKILRQKDKLFEEEMVVWYLFQIVSAVSCIHKAGILHRDIKTLNIFLTKANLIKLGDYGLAKKLNSEYSMAETLVGTPYYMSPELCQGVKYNFKSDIWAVGCVIFELLTLKRTFDATNPLNLCVKIVQGIRAMEVDSSQYSLELIQMVHSCLDQDPEQRPTADELLDRPLLRKRRREMEEKVTLLNAPTKRPRSSTVTEAPIAVVTSRTSEVYVWGGGKSTPQKLDVIKSGCSARQVCAGNTHFAVVTVEKELYTWVNMQGGTKLHGQLGHGDKASYRQPKHVEKLQGKAIRQVSCGDDFTVCVTDEGQLYAFGSDYYGCMGVDKVAGPEVLEPMQLNFFLSNPVEQVSCGDNHVVVLTRNKEVYSWGCGEYGRLGLDSEEDYYTPQKVDVPKALIIVAVQCGCDGTFLLTQSGKVLACGLNEFNKLGLNQCMSGIINHEAYHEVPYTTSFTLAKQLSFYKIRTIAPGKTHTAAIDERGRLLTFGCNKCGQLGVGNYKKRLGINLLGGPLGGKQVIRVSCGDEFTIAATDDNHIFAWGNGGNGRLAMTPTERPHGSDICTSWPRPIFGSLHHVPDLSCRGWHTILIVEKVLNSKTIRSNSSGLSIGTVFQSSSPGGGGGGGGGEEEDSQQESETPDPSGGFRGTMEADRGMEGLISPTEAMGNSNGASSSCPGWLRKELENAEFIPMPDSPSPLSAAFSESEKDTLPYEELQGLKVASEAPLEHKPQVEASSPRLNPAVTCAGKGTPLTPPACACSSLQVEVERLQGLVLKCLAEQQKLQQENLQIFTQLQKLNKKLEGGQQVGMHSKGTQTAKEEMEMDPKPDLDSDSWCLLGTDSCRPSL
On to B1, for which the binding result is recorded as “binds”.
